The other results are listed elsewhere or left out. The data scatter; read single values as rough.

Chains of the proteins cited; added tags and fusions are not shown. Lines headed by an entry give the natural chain unless they say otherwise; changes in a name come on top. Residues count along the entry.
UniProt Q9UKT4: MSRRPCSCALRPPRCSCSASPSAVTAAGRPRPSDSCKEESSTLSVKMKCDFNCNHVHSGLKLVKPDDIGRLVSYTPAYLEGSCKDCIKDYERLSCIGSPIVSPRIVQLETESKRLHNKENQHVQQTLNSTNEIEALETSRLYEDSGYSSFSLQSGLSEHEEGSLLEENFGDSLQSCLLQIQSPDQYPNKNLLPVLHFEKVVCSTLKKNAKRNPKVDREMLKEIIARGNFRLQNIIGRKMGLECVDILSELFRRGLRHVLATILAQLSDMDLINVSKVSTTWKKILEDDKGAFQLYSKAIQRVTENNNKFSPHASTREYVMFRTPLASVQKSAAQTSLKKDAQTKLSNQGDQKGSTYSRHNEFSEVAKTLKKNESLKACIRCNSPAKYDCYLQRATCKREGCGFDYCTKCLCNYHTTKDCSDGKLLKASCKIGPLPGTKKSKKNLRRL
UniProt P16591: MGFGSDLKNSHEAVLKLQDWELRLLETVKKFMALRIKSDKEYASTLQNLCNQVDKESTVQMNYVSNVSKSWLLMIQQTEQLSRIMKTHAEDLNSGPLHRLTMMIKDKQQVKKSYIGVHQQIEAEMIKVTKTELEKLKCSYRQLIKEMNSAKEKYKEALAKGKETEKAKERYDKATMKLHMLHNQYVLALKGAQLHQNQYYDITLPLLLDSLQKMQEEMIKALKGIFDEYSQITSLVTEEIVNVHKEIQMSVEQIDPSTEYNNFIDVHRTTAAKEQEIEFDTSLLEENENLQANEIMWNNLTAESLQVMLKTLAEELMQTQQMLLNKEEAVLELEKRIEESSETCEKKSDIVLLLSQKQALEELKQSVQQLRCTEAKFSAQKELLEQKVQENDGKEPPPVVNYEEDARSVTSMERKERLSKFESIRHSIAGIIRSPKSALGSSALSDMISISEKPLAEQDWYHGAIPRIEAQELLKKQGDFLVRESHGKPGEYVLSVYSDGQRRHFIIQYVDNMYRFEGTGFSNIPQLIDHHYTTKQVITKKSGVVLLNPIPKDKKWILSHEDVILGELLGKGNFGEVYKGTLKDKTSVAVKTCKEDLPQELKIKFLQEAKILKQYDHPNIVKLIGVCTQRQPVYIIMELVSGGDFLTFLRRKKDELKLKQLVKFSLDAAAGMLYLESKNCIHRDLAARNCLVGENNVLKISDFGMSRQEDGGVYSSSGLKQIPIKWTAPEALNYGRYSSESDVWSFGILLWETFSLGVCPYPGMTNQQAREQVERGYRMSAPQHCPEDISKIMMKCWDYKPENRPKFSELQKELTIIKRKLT
UniProt Q9Y613, 40-60: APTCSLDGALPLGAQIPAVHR
UniProt Q96IG2: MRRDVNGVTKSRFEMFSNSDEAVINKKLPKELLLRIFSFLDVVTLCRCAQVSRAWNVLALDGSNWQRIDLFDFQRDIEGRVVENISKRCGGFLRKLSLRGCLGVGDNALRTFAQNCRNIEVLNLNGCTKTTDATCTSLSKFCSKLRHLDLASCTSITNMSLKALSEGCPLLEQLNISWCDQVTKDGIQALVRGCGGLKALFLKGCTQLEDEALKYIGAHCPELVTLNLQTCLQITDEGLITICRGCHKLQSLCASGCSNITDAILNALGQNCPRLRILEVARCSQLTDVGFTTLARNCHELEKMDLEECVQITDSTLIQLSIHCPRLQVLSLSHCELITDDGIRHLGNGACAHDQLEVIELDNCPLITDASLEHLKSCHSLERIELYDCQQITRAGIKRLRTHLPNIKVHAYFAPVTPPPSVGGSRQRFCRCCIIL
UniProt O14976: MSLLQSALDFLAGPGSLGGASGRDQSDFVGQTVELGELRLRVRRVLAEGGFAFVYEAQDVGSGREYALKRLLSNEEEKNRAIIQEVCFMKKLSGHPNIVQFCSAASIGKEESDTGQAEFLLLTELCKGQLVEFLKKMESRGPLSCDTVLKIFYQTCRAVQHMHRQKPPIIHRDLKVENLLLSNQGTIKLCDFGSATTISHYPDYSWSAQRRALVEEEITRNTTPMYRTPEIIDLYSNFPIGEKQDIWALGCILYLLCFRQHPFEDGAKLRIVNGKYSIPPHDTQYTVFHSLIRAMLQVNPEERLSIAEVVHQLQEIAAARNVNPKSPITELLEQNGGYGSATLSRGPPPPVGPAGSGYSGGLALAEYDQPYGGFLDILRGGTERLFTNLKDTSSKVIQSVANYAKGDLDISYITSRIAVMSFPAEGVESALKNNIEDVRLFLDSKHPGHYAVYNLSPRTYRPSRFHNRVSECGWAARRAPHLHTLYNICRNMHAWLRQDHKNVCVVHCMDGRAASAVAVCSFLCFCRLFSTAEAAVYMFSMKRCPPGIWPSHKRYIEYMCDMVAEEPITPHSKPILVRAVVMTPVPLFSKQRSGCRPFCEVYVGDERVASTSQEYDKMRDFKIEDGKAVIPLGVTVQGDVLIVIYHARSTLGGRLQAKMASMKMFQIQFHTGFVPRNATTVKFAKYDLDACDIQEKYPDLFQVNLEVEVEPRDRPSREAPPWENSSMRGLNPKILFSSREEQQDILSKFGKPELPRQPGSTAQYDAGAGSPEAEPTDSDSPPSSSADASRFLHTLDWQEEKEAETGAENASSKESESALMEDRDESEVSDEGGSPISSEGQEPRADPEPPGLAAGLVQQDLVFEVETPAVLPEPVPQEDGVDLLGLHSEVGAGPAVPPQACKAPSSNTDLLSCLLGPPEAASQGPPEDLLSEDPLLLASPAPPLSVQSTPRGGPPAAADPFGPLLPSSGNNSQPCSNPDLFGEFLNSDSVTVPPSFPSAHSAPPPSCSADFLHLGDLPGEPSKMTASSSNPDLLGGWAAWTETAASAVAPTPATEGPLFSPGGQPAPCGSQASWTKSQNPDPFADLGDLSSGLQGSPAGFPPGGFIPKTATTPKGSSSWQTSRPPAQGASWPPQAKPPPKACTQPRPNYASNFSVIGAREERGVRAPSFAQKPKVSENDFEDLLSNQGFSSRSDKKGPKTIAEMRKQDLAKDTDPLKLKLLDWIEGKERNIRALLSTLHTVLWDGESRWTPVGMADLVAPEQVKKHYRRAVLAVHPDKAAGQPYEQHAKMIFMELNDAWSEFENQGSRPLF
UniProt Q96AE4: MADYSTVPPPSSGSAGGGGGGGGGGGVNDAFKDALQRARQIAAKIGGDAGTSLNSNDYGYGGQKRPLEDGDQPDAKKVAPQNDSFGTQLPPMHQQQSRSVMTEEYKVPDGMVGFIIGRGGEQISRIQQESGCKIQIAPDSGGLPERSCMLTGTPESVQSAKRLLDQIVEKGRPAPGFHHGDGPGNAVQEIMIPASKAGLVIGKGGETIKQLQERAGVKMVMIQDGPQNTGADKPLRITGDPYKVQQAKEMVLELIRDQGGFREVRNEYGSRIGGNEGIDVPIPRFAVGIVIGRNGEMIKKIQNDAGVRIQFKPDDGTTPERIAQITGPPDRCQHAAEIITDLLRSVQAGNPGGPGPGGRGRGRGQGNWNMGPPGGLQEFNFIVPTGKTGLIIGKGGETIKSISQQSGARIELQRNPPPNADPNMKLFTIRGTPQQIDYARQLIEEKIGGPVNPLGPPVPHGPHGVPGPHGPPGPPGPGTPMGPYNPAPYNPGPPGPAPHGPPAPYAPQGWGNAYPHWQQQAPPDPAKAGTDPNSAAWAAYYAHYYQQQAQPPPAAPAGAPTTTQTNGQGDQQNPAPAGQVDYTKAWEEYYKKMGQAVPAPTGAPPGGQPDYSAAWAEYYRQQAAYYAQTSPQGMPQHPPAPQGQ
UniProt Q5T1M5: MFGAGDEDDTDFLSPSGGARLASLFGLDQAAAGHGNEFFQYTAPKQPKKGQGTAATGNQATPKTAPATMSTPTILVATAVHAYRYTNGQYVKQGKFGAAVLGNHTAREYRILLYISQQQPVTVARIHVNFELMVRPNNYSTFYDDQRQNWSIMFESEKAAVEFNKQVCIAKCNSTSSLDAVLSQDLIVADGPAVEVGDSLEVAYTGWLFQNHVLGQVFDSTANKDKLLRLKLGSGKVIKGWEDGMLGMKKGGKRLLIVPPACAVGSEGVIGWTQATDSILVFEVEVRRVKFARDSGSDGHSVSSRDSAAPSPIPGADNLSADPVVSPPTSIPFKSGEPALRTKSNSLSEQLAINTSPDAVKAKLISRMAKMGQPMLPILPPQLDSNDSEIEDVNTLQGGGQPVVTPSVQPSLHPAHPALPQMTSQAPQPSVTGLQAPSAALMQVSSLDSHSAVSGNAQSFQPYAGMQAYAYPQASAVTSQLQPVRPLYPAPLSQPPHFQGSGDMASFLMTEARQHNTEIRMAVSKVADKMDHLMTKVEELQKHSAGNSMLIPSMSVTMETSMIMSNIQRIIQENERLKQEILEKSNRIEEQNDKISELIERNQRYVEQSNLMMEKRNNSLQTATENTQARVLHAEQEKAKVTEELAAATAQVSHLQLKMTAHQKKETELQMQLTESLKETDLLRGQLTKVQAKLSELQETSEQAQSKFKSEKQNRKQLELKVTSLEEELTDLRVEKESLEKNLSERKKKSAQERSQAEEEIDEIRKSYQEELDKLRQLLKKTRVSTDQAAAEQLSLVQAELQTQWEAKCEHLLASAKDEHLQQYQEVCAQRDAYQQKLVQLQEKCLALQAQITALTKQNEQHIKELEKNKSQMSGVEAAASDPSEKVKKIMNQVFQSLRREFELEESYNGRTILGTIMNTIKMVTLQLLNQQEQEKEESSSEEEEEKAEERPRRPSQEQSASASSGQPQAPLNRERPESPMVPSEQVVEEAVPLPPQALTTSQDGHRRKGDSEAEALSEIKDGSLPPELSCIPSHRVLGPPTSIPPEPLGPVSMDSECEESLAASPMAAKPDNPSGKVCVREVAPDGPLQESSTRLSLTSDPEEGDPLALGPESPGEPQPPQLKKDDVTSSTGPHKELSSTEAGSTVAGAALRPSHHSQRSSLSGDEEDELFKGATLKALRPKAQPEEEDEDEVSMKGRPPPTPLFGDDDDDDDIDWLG
UniProt Q96ME1, 148-167: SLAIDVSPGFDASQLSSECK
UniProt Q8IVF7, whole entry, looked up: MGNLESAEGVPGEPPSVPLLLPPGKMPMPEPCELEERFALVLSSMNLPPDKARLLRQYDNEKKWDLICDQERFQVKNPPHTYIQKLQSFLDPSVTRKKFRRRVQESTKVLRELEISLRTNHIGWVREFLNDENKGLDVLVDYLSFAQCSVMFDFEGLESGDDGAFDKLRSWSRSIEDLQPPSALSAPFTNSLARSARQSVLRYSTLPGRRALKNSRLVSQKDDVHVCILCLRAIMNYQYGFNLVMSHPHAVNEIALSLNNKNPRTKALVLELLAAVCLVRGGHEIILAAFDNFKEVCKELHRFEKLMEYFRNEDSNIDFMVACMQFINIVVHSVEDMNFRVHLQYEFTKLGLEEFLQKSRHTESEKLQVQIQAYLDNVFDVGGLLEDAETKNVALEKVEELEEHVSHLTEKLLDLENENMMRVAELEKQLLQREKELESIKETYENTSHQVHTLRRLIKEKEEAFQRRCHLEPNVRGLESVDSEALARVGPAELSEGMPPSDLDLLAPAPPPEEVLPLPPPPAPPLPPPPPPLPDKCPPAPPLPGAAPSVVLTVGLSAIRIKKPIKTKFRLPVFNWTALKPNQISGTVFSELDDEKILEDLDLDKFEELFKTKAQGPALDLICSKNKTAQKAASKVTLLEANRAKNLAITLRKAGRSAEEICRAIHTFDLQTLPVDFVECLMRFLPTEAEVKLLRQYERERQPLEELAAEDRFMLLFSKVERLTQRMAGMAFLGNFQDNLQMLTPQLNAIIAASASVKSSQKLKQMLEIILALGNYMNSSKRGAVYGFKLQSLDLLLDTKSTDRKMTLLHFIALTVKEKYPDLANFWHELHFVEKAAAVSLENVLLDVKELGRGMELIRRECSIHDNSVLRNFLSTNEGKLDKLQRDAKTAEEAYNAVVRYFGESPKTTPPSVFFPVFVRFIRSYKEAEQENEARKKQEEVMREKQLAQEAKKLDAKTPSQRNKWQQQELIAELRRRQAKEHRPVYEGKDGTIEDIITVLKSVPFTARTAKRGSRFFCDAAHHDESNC
UniProt Q9Y3I1: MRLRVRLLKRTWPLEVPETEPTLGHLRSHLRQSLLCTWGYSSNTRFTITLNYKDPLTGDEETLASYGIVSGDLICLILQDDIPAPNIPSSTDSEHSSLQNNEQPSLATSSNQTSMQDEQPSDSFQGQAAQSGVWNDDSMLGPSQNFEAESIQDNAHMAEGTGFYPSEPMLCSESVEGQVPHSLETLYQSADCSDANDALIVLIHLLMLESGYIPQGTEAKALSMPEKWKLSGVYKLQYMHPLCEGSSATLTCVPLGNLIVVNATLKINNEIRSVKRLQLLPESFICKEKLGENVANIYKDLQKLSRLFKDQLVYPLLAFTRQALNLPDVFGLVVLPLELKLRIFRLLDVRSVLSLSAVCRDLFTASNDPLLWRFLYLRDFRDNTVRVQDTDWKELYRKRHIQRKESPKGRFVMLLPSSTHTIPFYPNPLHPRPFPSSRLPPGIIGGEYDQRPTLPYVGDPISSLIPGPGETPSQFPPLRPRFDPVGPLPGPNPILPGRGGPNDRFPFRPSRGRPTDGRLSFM
UniProt Q0JRZ9, 263-285: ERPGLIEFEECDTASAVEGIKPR
UniProt Q96CP2, 112-138: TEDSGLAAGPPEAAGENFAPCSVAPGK

Compound in the first test: ClCC(=O)N[C@@H]1CCCc2ccccc12
In words: log2 mean competition ratio of IA-DTB cysteine labelling (DMSO/compound) (log2 ratio); higher = stronger cysteine engagement by compound. The settings on record: 50 µM; treatment time: 4 h; cell line lysate: HEK293T. The method, then: (§1)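 IA-DTB competitive cysteine chemoproteomics in HEK293T RIPA lysate. Lysates were treated with compound 29 or 30 at 50 or 200 µM for 4 h, then IA-DTB (500 µM, 1 h), trypsin-digested, NeutrAvidin-enriched and analysed by diaPASEF. Competition ratio = intensity DMSO / intensity compound (n=4 treated, n=64 DMSO); binding: mean log2 CR ≥ 1 and p ≤ 0.05 plus QC filters. Target is the cysteine site.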
Turning to FBXO5 C95 (UniProt Q9UKT4), the “log2 mean competition ratio” value is 0.209.

Take FER C627 (UniProt P16591): the “log2 mean competition ratio” value was 0.328.

On to FHOD1 C373 (UniProt Q9Y613), for which the “log2 mean competition ratio” value was -0.0983.

In the case of FBXL20 C205 (UniProt Q96IG2), the “log2 mean competition ratio” value amounted to 0.151.

Turning to GAK C691 (UniProt O14976), the “log2 mean competition ratio” value worked out at 0.00601.

Regarding GART C941, the “log2 mean competition ratio” value was -0.181.

As for FUBP1 C132 (UniProt Q96AE4), the “log2 mean competition ratio” value is -0.138.

In the case of FASN C1759, the “log2 mean competition ratio” value was determined as 0.00417.

FXR2 C151 (UniProt P51116): the “log2 mean competition ratio” value was -0.245.

For GABPA C421 (UniProt Q06546), the “log2 mean competition ratio” value is -0.0447.

Take FKBP15 C1031 (UniProt Q5T1M5): the “log2 mean competition ratio” value is -0.21.

Regarding FBXL18 C166 (UniProt Q96ME1), the “log2 mean competition ratio” value is -0.116.

For FOXC1 C550, the “log2 mean competition ratio” value is 0.0385.

On to FAT1 C4512 (UniProt Q14517), for which the “log2 mean competition ratio” value was -0.287.

As to GAPVD1 C293 (UniProt Q14C86), the “log2 mean competition ratio” value is -0.0642.

FBXL2 C88: the “log2 mean competition ratio” value is -0.0724.

With GART C41, the “log2 mean competition ratio” value was -0.262.

For FMNL3 C862 (UniProt Q8IVF7), the “log2 mean competition ratio” value was -0.305.

Turning to G6PD C294, the “log2 mean competition ratio” value was -0.501.

Regarding FASTKD3 C378 (UniProt Q14CZ7), the “log2 mean competition ratio” value is -0.0646.

On to FERMT2 C426 (UniProt Q96AC1), for which the “log2 mean competition ratio” value is -0.146.

For the target FSCN1 C397 (UniProt Q16658), the “log2 mean competition ratio” value was -0.094.

For the target FYCO1 C882 (UniProt Q9BQS8), the “log2 mean competition ratio” value was -0.191.

Turning to FBXL15 C139 (UniProt Q9H469), the “log2 mean competition ratio” value amounted to 0.000276.

On to FLNC C2679 (UniProt Q14315), for which the “log2 mean competition ratio” value was -0.132.

For GAB1 C405 (UniProt Q13480), the “log2 mean competition ratio” value was -0.00819.

Regarding FASN C1141, the “log2 mean competition ratio” value stood at 0.0107.

In the case of FBXO7 C286 (UniProt Q9Y3I1), the “log2 mean competition ratio” value is -0.12.

Consider FHOD1 C43 (UniProt Q9Y613), for which the “log2 mean competition ratio” value worked out at 0.478.

As to FHOD1 C31 (UniProt Q9Y613), the “log2 mean competition ratio” value worked out at 0.112.

Consider FNDC3B C218 (UniProt Q53EP0), for which the “log2 mean competition ratio” value is -0.361.

Regarding FER C344 (UniProt P16591), the “log2 mean competition ratio” value is 0.0169.

FCHSD2 C105 (UniProt O94868): the “log2 mean competition ratio” value was -0.104.

In the case of GAK C145 (UniProt O14976), the “log2 mean competition ratio” value was 0.103.

Regarding FBXL20 C116 (UniProt Q96IG2), the “log2 mean competition ratio” value is -0.076.

Turning to FCHO2 C273 (UniProt Q0JRZ9), the “log2 mean competition ratio” value is -0.126.

In the case of FLYWCH2 C132 (UniProt Q96CP2), the “log2 mean competition ratio” value is -0.281.

The same test, now with this note: 200 µM; treatment time: 4 h; cell line lysate: HEK293T.
In the case of FBXO5 C95 (UniProt Q9UKT4), the “log2 mean competition ratio” value stood at 0.0927.

On to FER C627 (UniProt P16591), for which the “log2 mean competition ratio” value is -0.0176.

In the case of FHOD1 C373 (UniProt Q9Y613), the “log2 mean competition ratio” value was -0.0724.

FBXL20 C205 (UniProt Q96IG2): the “log2 mean competition ratio” value was -0.143.

On to GAK C691 (UniProt O14976), for which the “log2 mean competition ratio” value was -0.236.

Take GART C941: the “log2 mean competition ratio” value turned out to be 0.624.

Regarding FUBP1 C132 (UniProt Q96AE4), the “log2 mean competition ratio” value was determined as 0.0715.

For FASN C1759, the “log2 mean competition ratio” value is -0.633.

Take FXR2 C151 (UniProt P51116): the “log2 mean competition ratio” value was -0.00011.

For GABPA C421 (UniProt Q06546), the “log2 mean competition ratio” value is 0.186.

On to FKBP15 C1031 (UniProt Q5T1M5), for which the “log2 mean competition ratio” value was -0.231.

With FBXL18 C166 (UniProt Q96ME1), the “log2 mean competition ratio” value was 0.113.

As to FOXC1 C550, the “log2 mean competition ratio” value came out at 0.236.

For FAT1 C4512 (UniProt Q14517), the “log2 mean competition ratio” value was -0.144.

Turning to GAPVD1 C293 (UniProt Q14C86), the “log2 mean competition ratio” value is -0.0438.

On to FBXL2 C88, for which the “log2 mean competition ratio” value amounted to 0.184.

Turning to GART C41, the “log2 mean competition ratio” value is -0.0708.

Regarding FMNL3 C862 (UniProt Q8IVF7), the “log2 mean competition ratio” value is -0.0423.

For G6PD C294, the “log2 mean competition ratio” value came to 0.0176.

Regarding FASTKD3 C378 (UniProt Q14CZ7), the “log2 mean competition ratio” value was 0.0383.

For the target FERMT2 C426 (UniProt Q96AC1), the “log2 mean competition ratio” value is -0.121.

As for FSCN1 C397 (UniProt Q16658), the “log2 mean competition ratio” value turned out to be 0.0241.

Turning to FYCO1 C882 (UniProt Q9BQS8), the “log2 mean competition ratio” value is -0.0321.

Take FBXL15 C139 (UniProt Q9H469): the “log2 mean competition ratio” value worked out at 0.552.

For FLNC C2679 (UniProt Q14315), the “log2 mean competition ratio” value is -0.307.

With GAB1 C405 (UniProt Q13480), the “log2 mean competition ratio” value was -0.122.

Consider FASN C1141, for which the “log2 mean competition ratio” value turned out to be 0.0793.

In the case of FBXO7 C286 (UniProt Q9Y3I1), the “log2 mean competition ratio” value was -0.0909.

Take FHOD1 C43 (UniProt Q9Y613): the “log2 mean competition ratio” value turned out to be 0.0673.

Take FHOD1 C31 (UniProt Q9Y613): the “log2 mean competition ratio” value was 0.0336.

For the target FNDC3B C218 (UniProt Q53EP0), the “log2 mean competition ratio” value is -0.111.

As for FER C344 (UniProt P16591), the “log2 mean competition ratio” value was -0.052.

For FCHSD2 C105 (UniProt O94868), the “log2 mean competition ratio” value was 0.133.

GAK C145 (UniProt O14976): the “log2 mean competition ratio” value came to 0.0725.

As to FBXL20 C116 (UniProt Q96IG2), the “log2 mean competition ratio” value worked out at 0.189.

Consider FCHO2 C273 (UniProt Q0JRZ9), for which the “log2 mean competition ratio” value came to 0.101.

Consider FLYWCH2 C132 (UniProt Q96CP2), for which the “log2 mean competition ratio” value is -0.134.

Compound in the next test: ClCC(=O)N[C@H]1CCCc2ccccc12
The description is as above. Conditions: 50 µM; treatment time: 4 h; cell line lysate: HEK293T. Here is the method:
as §1
In the case of FBXO5 C95 (UniProt Q9UKT4), the “log2 mean competition ratio” value is -0.251.

Turning to FER C627 (UniProt P16591), the “log2 mean competition ratio” value was determined as 0.546.

For the target FHOD1 C373 (UniProt Q9Y613), the “log2 mean competition ratio” value is -0.058.

In the case of FBXL20 C205 (UniProt Q96IG2), the “log2 mean competition ratio” value was -0.101.

For the target GAK C691 (UniProt O14976), the “log2 mean competition ratio” value is -0.139.

For the target GART C941, the “log2 mean competition ratio” value was 0.576.

For FUBP1 C132 (UniProt Q96AE4), the “log2 mean competition ratio” value is -0.212.

Take FASN C1759: the “log2 mean competition ratio” value is -0.0376.

With FXR2 C151 (UniProt P51116), the “log2 mean competition ratio” value is -0.124.

As to GABPA C421 (UniProt Q06546), the “log2 mean competition ratio” value was -0.0486.

Regarding FKBP15 C1031 (UniProt Q5T1M5), the “log2 mean competition ratio” value was -0.0302.

For FBXL18 C166 (UniProt Q96ME1), the “log2 mean competition ratio” value is -0.351.

Regarding FOXC1 C550, the “log2 mean competition ratio” value amounted to 0.496.

On to FAT1 C4512 (UniProt Q14517), for which the “log2 mean competition ratio” value was -0.194.

Take GAPVD1 C293 (UniProt Q14C86): the “log2 mean competition ratio” value was -0.0202.

Take FBXL2 C88: the “log2 mean competition ratio” value is -0.121.

On to GART C41, for which the “log2 mean competition ratio” value was -0.178.

FMNL3 C862 (UniProt Q8IVF7): the “log2 mean competition ratio” value was -0.264.

Take G6PD C294: the “log2 mean competition ratio” value worked out at 0.0799.

On to FASTKD3 C378 (UniProt Q14CZ7), for which the “log2 mean competition ratio” value was found to be 0.241.

Turning to FERMT2 C426 (UniProt Q96AC1), the “log2 mean competition ratio” value was found to be 0.0754.

As for FSCN1 C397 (UniProt Q16658), the “log2 mean competition ratio” value was -0.049.

As for FYCO1 C882 (UniProt Q9BQS8), the “log2 mean competition ratio” value is -0.721.

With FBXL15 C139 (UniProt Q9H469), the “log2 mean competition ratio” value amounted to 0.283.

In the case of FLNC C2679 (UniProt Q14315), the “log2 mean competition ratio” value was 0.202.

Consider GAB1 C405 (UniProt Q13480), for which the “log2 mean competition ratio” value was -0.0776.

For FASN C1141, the “log2 mean competition ratio” value was -0.119.

FBXO7 C286 (UniProt Q9Y3I1): the “log2 mean competition ratio” value is -0.322.

Consider FHOD1 C43 (UniProt Q9Y613), for which the “log2 mean competition ratio” value is -0.351.

Regarding FHOD1 C31 (UniProt Q9Y613), the “log2 mean competition ratio” value is -0.667.

As to FNDC3B C218 (UniProt Q53EP0), the “log2 mean competition ratio” value was -0.75.

Take FER C344 (UniProt P16591): the “log2 mean competition ratio” value is -0.157.

As to FCHSD2 C105 (UniProt O94868), the “log2 mean competition ratio” value was -0.228.

As for GAK C145 (UniProt O14976), the “log2 mean competition ratio” value stood at 0.431.

Regarding FBXL20 C116 (UniProt Q96IG2), the “log2 mean competition ratio” value was -0.0124.

Regarding FCHO2 C273 (UniProt Q0JRZ9), the “log2 mean competition ratio” value was -0.445.

For FLYWCH2 C132 (UniProt Q96CP2), the “log2 mean competition ratio” value was 0.394.

Source of the values: the supplement of paper PMC11732987, “Enantioselective OTUD7B fragment discovery through chemoproteomics screening and high-throughput optimisation” (Communications Chemistry, 2025).
